Experimental data: PubChem BioAssay AID504467 (National Center for Advancing Translational Sciences (NCATS), 2011)
Out of some 330,000 compounds screened, about 7,700 (2.3%) were called active. This list was built around the results that the source calls inconclusive (neither active nor inactive); the mix of calls is not that of the screen. Calls follow the shape of the dose curve; as a rule, active = well fitted inhibition curve with a large enough effect; inconclusive = small, poorly fitted or top-dose-only effect, or effect the other way; inactive = flat fitted curve, though single readings scatter. A potency beside an inconclusive call is a rough fit, not a confirmed value.

experiment: qHTS screen for small molecules that inhibit ELG1-dependent DNA repair in human embryonic kidney (HEK293T) cells expressing luciferase-tagged ELG1; details: HEK293T ELG1-luciferase reporter, luminescence, 16 h, DNA damage induced by 5-fluorouridine; activity change, negative = inhibition: at 46.1 µM (top of the series); also: nearly all actives have a fitted effect of over 55% in size
In short: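 In this reporter screen, reduction of luminescence relative to DMSO vehicle indicated activity. Compounds and 5-fluorouridine were added together to 2,000 cells per well, incubated for 16 hr at 37 °C, then developed with ONE-Glo.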
% is scaled to controls: 0 for no effect and ±100 for the full control effect; potency is read from the fitted curve at half-maximal effect.

Row | Compound | activity change, negative = inhibition | Potency
1 | COCCNc1cc(C)nc2c(-c3ccccc3OC)c(C)nn12 | inactive: 0.787% | 
2 | CCN(CCn1cccn1)C(=O)CCc1nnc(C2(c3ccc(Cl)cc3)CCC2)o1 |  | inconclusive: 20.6 µM [activator, partial curve]
3 | COc1ccccc1NS(=O)(=O)c1ccc(C(=O)NCC(c2cccs2)N2CCOCC2)cc1 (centres undefined) | inactive: -23.5% | 
4 | CCN1CCN(C(=O)CSc2cc(=O)n(C)c3ccccc23)CC1 |  | inconclusive: 18.3 µM [activator, partial curve]
5 | O=C(COC(=O)c1cc([N+](=O)[O-])ccc1N1CCOCC1)Nc1ccccc1OC(F)F |  | inconclusive: 23.1 µM [inhibitor, single point]
6 | Cc1nnc(SCc2cc(=O)oc3ccc4ccccc4c23)n1Cc1ccccc1 | inactive: -11.6% | 
7 | COc1ccccc1OCCSc1nc2ccccc2n1CC(O)CO (centres undefined) |  | inconclusive: 3.16 µM [activator, single point]
8 | Nc1c(C(=O)c2ccco2)oc2ccccc12 |  | inconclusive: 23.1 µM [activator, single point]
9 | CC(=O)N1CCN(C(=O)COC(=O)CNC(=O)c2ccccc2C)CC1 | inactive: 10.5% | 
10 | Cc1cccc(Oc2sc(C(=O)c3ccccc3)c(N)c2C#N)c1 |  | inconclusive: 18.4 µM [inhibitor, single point]
11 | CCCC(C)c1nnc(NC(=O)C2CCCO2)s1 (centres undefined) |  | inconclusive: 25.1 µM [activator, single point]
12 | CC1(C)Oc2cc3oc(=O)ccc3cc2C[C@@H]1O |  | inconclusive: 16.4 µM [activator, single point]
13 | CCCn1cc(CN2CCCC(C(=O)c3ccc4c(c3)OCO4)C2)c(C)n1 (centres undefined) | inactive: -5.71% | 
14 | CCN1CCN(S(=O)(=O)c2cccc([N+](=O)[O-])c2)CC1 | inactive: 1.44% | 
15 | CNC(=O)c1[nH]cnc1C(=O)Nc1cccc(C)c1 |  | inconclusive: 20.6 µM [activator, partial curve]
16 | COC(=O)c1ccc(C)c(NC(=O)c2ccc(Cl)c([N+](=O)[O-])c2)c1 |  | inconclusive: 29.1 µM [activator, partial curve, poor fit]
17 | O=C(c1ccc(Cl)cc1Cl)N1CCN(c2ccc(N3CCOCC3)nn2)CC1 |  | inconclusive: 14.6 µM [inhibitor, partial curve, poor fit]
18 | c1ccc(Cc2nn3c(Cn4nnc5ccccc54)nnc3s2)cc1 | inactive: 14.7% | 
19 | c1ccc(Sc2cccc3ccccc23)c(CNC2=NCCN2)c1 |  | inconclusive: 10.3 µM [inhibitor, partial curve]
20 | CC1=C(C)C(OCCCl)N(c2cc(O)c(Cl)cc2F)C1=O (centres undefined) | inactive: -5.5% | 
21 | COc1ccc(C2=CC(=O)CC(c3ccccc3)C2)cc1 (centres undefined) | inactive: -17.4% | 
22 | OCC[C@H]1C[C@@H](O)[C@H](O)[C@]2(CCCCO2)O1 | inactive: -0.457% | 
23 | O=C(Cc1ccccc1)Nc1ncccn1 | inactive: -0.0482% | 

Row | Compound | activity change, negative = inhibition | Potency
24 | CCn1nc(C(=O)NC2=NCCS2)c2ccccc2c1=O | inactive: -3.31% | 
25 | S=C(Nc1ccccn1)Nc1ccccc1Cl |  | inconclusive: 20.6 µM [activator, partial curve]
26 | CC1=C(CCN2CCN(C3CCCC3)C(CCO)C2)C(C)(C)CCC1 (centres undefined) |  | inconclusive: 25.9 µM [inhibitor, single point]
27 | CC1=NN(c2ccc(C)cc2)C(=O)/C1=C\c1ccc(Br)s1 |  | inconclusive: 16.4 µM [activator, partial curve]
28 | CCOc1ccc(NC(=O)CSc2nnc(-c3ccco3)n2C)cc1 | inactive: -18.4% | 
29 | CCN(CC)c1ccc(S(=O)(=O)N2CCOCC2)cc1NC(=O)C1CC1 | inactive: -1.29% | 
30 | Cc1cnn(CCC(=O)NNC(=S)Nc2ccc(F)cc2)c1 |  | inconclusive: 8.91 µM [inhibitor, single point]
31 | O=C(CSc1nncc2ccccc12)Nc1cccc(C(=O)O)c1 |  | inconclusive: 18.3 µM [activator, partial curve]
32 | CC(C)(C)NC1=CC(=O)OC12CCCCC2 |  | inconclusive: 6.51 µM [inhibitor, single point]
33 | S=c1[nH]nc(COc2ccccc2)n1/N=C/c1cccc(Br)c1 | inactive: 6.34% | 
34 | O=S(=O)(c1ccc(SCc2ccccc2)nc1)N1CCCCCC1 |  | inconclusive: 29.1 µM [activator, single point]
35 | COc1ccc(OC)c(CN(CCN2CCOCC2)C(=O)Nc2cccc(Cl)c2)c1 |  | inconclusive: 18.4 µM [inhibitor, partial curve, poor fit]
36 | Clc1ccc(/C=N/Nc2ccccn2)cc1 |  | inconclusive: 14.6 µM [activator, partial curve]
37 | O=C(Cn1cnc2ccccc2c1=O)c1ccc2c(c1)OCCO2 |  | inconclusive: 5.62 µM [activator, partial curve]
38 | NC1=NN=C(c2ccc3c(c2)OCCO3)CS1 |  | inconclusive: 3.26 µM [activator, partial curve]
39 | Cc1ccc(NC(=O)CN(C)Cc2nc3ccccc3c(=O)[nH]2)c(Br)c1 |  | inconclusive: 18.4 µM [inhibitor, single point]
40 | Oc1ccc(N=C/C=C/c2cccc(Br)c2)cc1-c1nc2ccccc2s1 |  | inconclusive: 16.4 µM [activator, partial curve]
41 | NC(=O)c1ccccc1NS(=O)(=O)c1cccs1 | inactive: -0.431% | 
42 | COCCNC(=O)c1onc(CS(=O)(=O)c2cc(C)cc(C)c2)c1C(=O)NCCOC |  | inconclusive: 2.82 µM [activator, single point]
43 | O=C(c1ccc(OC(F)(F)F)cc1)c1ncc[nH]1 |  | inconclusive: 20.6 µM [activator, partial curve]
44 | CCCCCCCNC(=O)C1(CC2CC(c3cccc(Br)c3)=NO2)CCN(C(=O)CCCCCBr)CC1 (centres undefined) |  | inconclusive: 3.16 µM [inhibitor, single point]
45 | COc1ccc(-c2nn(-c3ccccc3)cc2C(=O)Nc2nc(CC(C)=O)ns2)cc1 | inactive: -25.3% | 
46 | CCCCN(C)C(=O)c1oc2ccc(S(=O)(=O)N3CCCCCC3)cc2c1C |  | inconclusive: 29.1 µM [inhibitor, single point]

Row | Compound | activity change, negative = inhibition | Potency
47 | O=C(CN1CCc2ccccc2C1)Nc1ccc(Br)cc1 |  | inconclusive: 29.1 µM [activator, single point]
48 | O=C(OC[C@H]1O[C@@H](OC(=O)c2cc(O)c(O)c(OC(=O)c3cc(O)c(O)c(O)c3)c2)[C@H](OC(=O)c2cc(O)c(O)c(OC(=O)c3cc(O)c(O)c(O)c3)c2)[C@@H](OC(=O)c2cc(O)c(O)c(OC(=O)c3cc(O)c(O)c(O)c3)c2)[C@@H]1OC(=O)c1cc(O)c(O)c(OC(=O)c2cc(O)c(O)c(O)c2)c1)c1cc(O)c(O)c(OC(=O)c2cc(O)c(O)c(O)c2)c1 |  | inconclusive: 20.6 µM [inhibitor, single point]
49 | CCOC(=O)c1c(C)[nH]c(C)c1S(=O)(=O)N1CCN(c2cccc(C)c2)C(C)C1 (centres undefined) | inactive: -23.4% | 
50 | Cc1nn(-c2ccccc2)c(N2CCCC2)c1/C=N/NC(=S)Nc1ccccc1C(F)(F)F |  | inconclusive: 7.31 µM [inhibitor, partial curve, poor fit]
51 | Cc1ccc(SCC(=O)Nc2c(Br)cnn2C)cc1 |  | inconclusive: 23.1 µM [inhibitor, partial curve, poor fit]
52 | COc1ccc(C(=O)N/C(=C\c2cn(S(=O)(=O)N(C)C)c3ccccc23)C(=O)NCCCN2CCOCC2)cc1 | inactive: 3.23% | 
53 | COc1ccc(C)cc1NC(=O)CN1CCN(S(=O)(=O)c2ccc(C(C)C)cc2)CC1 |  | inconclusive: 29.1 µM [inhibitor, single point]
54 | COc1ccc(-n2cc(CNC(C)c3ccncn3)c(-c3cccc(F)c3)n2)cc1 (centres undefined) | inactive: 2.52% | 
55 | COCCCNC(=O)C(=O)NCC1CCCN1S(=O)(=O)c1cccs1 (centres undefined) | inactive: 13.5% | 
56 | CCOc1c(C)cc2[nH]c(CCC(=O)O)nc2c1C |  | inconclusive: 18.4 µM [activator, partial curve, poor fit]
57 | CCS(=O)(=O)C1=NN2C(=N)/C(=C\c3ccc(SCc4ccco4)o3)C(=O)N=C2S1 |  | inconclusive: 10.3 µM [activator, partial curve, poor fit]
58 | O=C(CSc1nnc(CNC(=O)c2ccccc2)o1)NCc1ccccc1Cl | inactive: 0.507% | 
59 | CC#CC(=O)N1CCC(CCC(=O)N(C)Cc2ccccc2)CC1 |  | inconclusive: 2.06 µM [activator, partial curve]
60 | COc1cc(COc2ccc3c(C)c(Cc4ccccc4)c(=O)oc3c2C)cc(OC)c1OC |  | inconclusive: 20.6 µM [inhibitor, single point]
61 | CCC(Sc1n[nH]c(=O)[nH]c1=O)C(=O)OCc1ccccc1 (centres undefined) | inactive: 10.2% | 
62 | COc1cccc(N2CCN(CC(=O)Nc3ccc(S(=O)(=O)N4CCCCCC4)cc3)CC2)c1 |  | inconclusive: 16.4 µM [inhibitor, partial curve, poor fit]
63 | C=CCN(C(=O)c1csnn1)C(C(=O)NC1CCCCC1)c1ccccc1 (centres undefined) | inactive: 1.91% | 
64 | CC(C)C(O)P(=O)(OCc1ccccc1)c1ccc(N(C)C)cc1 (centres undefined) | inactive: 15.7% | 
65 | O=C(NCC1(N2CCCCC2)CCCCC1)c1cccc(S(=O)(=O)Nc2ccc(F)cc2)c1 |  | inconclusive: 35.5 µM [activator, partial curve, poor fit]
66 | Cc1nn(Cc2ccc(C(=O)Nc3ccccc3C(F)(F)F)o2)c(C)c1Br |  | inconclusive: 29.1 µM [inhibitor, partial curve, poor fit]
67 | CC1CN(C(=O)c2ccc(COc3ccccc3Cl)o2)CC(C)O1 (centres undefined) |  | inconclusive: 6.51 µM [inhibitor, single point]
68 | COc1cc(NC(=O)c2ccc3c(c2)OCCO3)ccc1NC(=O)c1ccco1 | inactive: -0.232% | 
69 | FC(F)(F)c1ccc(N2CCOCC2)c(Nc2nc3ccccc3n3cnnc23)c1 |  | inconclusive: 16.4 µM [inhibitor, single point]

Reformatted tab-delimited: 2 of the compounds above
Row	Compound	activity change, negative = inhibition	Potency
63	C=CCN(C(=O)c1csnn1)C(C(=O)NC1CCCCC1)c1ccccc1 (centres undefined)	inactive: 1.91%	
64	CC(C)C(O)P(=O)(OCc1ccccc1)c1ccc(N(C)C)cc1 (centres undefined)	inactive: 15.7%	

For reference, some entries already given:
Row | Compound | activity change, negative = inhibition | Potency
48 | O=C(OC[C@H]1O[C@@H](OC(=O)c2cc(O)c(O)c(OC(=O)c3cc(O)c(O)c(O)c3)c2)[C@H](OC(=O)c2cc(O)c(O)c(OC(=O)c3cc(O)c(O)c(O)c3)c2)[C@@H](OC(=O)c2cc(O)c(O)c(OC(=O)c3cc(O)c(O)c(O)c3)c2)[C@@H]1OC(=O)c1cc(O)c(O)c(OC(=O)c2cc(O)c(O)c(O)c2)c1)c1cc(O)c(O)c(OC(=O)c2cc(O)c(O)c(O)c2)c1 |  | inconclusive: 20.6 µM [inhibitor, single point]
49 | CCOC(=O)c1c(C)[nH]c(C)c1S(=O)(=O)N1CCN(c2cccc(C)c2)C(C)C1 (centres undefined) | inactive: -23.4% | 
